Assay results reported in patent publication US20100311820.
Construct, isoform or probe ends are uncertain for at least one entry. For part of these data: Negatives hold for the conditions tested. For part of these data: Protein sequences can lack the tags named with them. For part of these data: At least one result comes from cells or an extract, where the contact may be indirect.

Chains of the proteins cited; added tags and fusions are not shown. Lines headed by an entry give the natural chain unless they say otherwise; changes in a name come on top. Residues count along the entry.
UniProt Q9H244: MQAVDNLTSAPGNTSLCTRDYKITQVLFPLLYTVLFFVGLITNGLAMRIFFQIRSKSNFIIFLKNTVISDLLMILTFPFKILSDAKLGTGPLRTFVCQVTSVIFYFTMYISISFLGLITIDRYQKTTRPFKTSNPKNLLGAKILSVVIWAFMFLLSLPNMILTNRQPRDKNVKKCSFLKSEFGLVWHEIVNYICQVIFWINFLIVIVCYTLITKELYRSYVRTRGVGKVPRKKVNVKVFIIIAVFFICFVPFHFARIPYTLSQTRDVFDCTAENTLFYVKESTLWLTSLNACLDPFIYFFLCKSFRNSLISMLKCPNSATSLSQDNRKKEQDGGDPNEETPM
UniProt P47900: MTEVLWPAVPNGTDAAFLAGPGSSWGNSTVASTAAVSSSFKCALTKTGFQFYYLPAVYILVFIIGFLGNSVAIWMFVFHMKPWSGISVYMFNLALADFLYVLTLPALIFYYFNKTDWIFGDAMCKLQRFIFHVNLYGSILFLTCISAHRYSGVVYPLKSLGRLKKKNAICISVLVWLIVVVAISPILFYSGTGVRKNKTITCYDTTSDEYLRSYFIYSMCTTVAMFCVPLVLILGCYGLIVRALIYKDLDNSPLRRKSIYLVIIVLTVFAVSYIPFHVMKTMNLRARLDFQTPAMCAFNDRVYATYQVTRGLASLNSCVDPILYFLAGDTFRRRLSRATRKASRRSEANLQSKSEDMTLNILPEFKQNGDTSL
UniProt P07359, 17-652: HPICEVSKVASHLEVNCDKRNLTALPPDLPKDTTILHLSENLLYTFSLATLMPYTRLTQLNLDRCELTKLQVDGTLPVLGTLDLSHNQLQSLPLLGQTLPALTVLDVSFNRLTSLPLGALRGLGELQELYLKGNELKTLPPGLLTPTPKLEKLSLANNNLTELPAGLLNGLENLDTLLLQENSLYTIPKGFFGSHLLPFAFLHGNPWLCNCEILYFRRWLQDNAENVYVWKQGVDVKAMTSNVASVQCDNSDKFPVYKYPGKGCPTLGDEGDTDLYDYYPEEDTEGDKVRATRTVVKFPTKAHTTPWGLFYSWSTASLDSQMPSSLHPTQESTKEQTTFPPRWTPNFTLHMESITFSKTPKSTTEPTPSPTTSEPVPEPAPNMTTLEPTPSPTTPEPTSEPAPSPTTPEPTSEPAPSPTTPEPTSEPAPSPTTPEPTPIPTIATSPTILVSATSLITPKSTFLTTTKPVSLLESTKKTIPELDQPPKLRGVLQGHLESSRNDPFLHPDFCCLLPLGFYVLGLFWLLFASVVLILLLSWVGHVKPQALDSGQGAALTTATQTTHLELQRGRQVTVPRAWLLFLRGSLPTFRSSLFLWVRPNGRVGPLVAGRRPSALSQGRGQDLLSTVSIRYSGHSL
UniProt P25116, 22-425: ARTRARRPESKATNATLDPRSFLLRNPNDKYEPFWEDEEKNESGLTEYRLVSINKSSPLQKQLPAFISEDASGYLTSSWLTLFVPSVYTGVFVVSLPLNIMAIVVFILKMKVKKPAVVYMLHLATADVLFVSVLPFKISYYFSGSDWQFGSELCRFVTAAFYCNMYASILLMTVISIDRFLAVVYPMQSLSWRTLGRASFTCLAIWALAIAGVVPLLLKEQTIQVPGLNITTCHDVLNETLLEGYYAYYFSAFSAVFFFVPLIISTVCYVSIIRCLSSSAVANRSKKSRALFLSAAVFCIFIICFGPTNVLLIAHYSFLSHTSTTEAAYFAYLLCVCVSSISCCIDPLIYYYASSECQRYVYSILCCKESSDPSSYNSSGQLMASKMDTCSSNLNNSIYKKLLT

Columns and labels:
Test in all cases: activity in cells
P2Y12 (Homo sapiens) = P2Y12 (Homo sapiens) (UniProt Q9H244); conditions: RB567 with 5' branched 40 kDa PEG; no effect on ADP-induced aggregation, washed platelets; protein on the cell surface; protein details: native platelets; variant of RB567; dose not given here
[1] = target: T1, Glycoprotein VI on platelets (Homo sapiens) (UniProt Q9HCN6); conditions: RB567 with 5' branched 40 kDa PEG; CRP-XL-induced washed platelet aggregation; protein on the cell surface; variant of RB567
T1 sequence (limits assumed): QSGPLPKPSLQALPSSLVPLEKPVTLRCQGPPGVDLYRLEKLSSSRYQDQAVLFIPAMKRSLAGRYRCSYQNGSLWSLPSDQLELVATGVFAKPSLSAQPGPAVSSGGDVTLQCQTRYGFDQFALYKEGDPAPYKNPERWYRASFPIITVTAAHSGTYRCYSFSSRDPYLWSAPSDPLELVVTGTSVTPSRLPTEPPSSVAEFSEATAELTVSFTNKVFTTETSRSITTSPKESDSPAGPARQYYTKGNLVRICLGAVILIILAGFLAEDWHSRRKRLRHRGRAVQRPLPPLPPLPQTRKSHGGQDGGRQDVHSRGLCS

[2] = target: T2, Thromboxane A2 receptor (Homo sapiens) (UniProt P21731); conditions: RB567 with 5' branched 40 kDa PEG; no effect on arachidonic acid-induced aggregation, PRP; protein on the cell surface; protein details: native platelets; variant of RB567; dose not given here
T2 sequence (looked up, limits assumed): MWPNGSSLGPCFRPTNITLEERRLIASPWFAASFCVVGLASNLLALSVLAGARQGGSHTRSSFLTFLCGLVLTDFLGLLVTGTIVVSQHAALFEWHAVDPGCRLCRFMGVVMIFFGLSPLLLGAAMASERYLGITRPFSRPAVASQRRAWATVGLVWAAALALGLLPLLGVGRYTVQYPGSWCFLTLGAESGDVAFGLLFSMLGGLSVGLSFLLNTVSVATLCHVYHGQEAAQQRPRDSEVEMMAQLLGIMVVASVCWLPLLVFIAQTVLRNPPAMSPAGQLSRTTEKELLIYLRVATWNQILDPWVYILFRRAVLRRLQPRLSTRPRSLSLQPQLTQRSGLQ

P2Y1 (Homo sapiens) = P2Y1 (Homo sapiens) (UniProt P47900); conditions: RB567 with 5' branched 40 kDa PEG; no effect on ADP-induced aggregation, washed platelets; protein on the cell surface; protein details: native platelets; variant of RB567; dose not given here
[3] = target: GP1b alpha (Homo sapiens) (UniProt P07359); conditions: RB567 with 5' branched 40 kDa PEG; no effect on ristocetin-induced aggregation, PRP; protein on the cell surface; protein details: native platelets; variant of RB567; dose not given here
PAR-1 (Homo sapiens) = PAR-1 (Homo sapiens) (UniProt P25116); conditions: RB567 with 5' branched 40 kDa PEG; no effect on TRAP-induced aggregation, washed platelets; protein on the cell surface; protein details: native platelets; variant of RB567; dose not given here

Sequence: GGAGGACGGCGCGCCUGGCAUAAGCCUCC [RB571]
- functional effect of the aptamer (P2Y12 (Homo sapiens)): not active
- IC50 [1]: 33 nM
- functional effect of the aptamer [2]: not active
- functional effect of the aptamer (P2Y1 (Homo sapiens)): not active
- functional effect of the aptamer [3]: not active
- functional effect of the aptamer (PAR-1 (Homo sapiens)): not active
